These are yes or no findings as the source states them, for the method shown. In cells and extracts the contact can be indirect. Some entries that bind do so weakly or less than the wild type. Where a sequence is shown, tags or fusion partners need not be part of it.
Assays:
Assay in all cases: co-IP; N2a cells cotransfected with Gαo-GFP variant and His6-RGS19; IP with GST-tagged anti-GFP nanobody and glutathione Sepharose 4B beads, overnight at 4°C; Western blot with anti-GFP and anti-His6
Gαo-GFP A227V (human) = Gαo-GFP A227V (human) (UniProt P09471)
Gαo-GFP C215Y (human) = Gαo-GFP C215Y (human) (UniProt P09471)
Gαo-GFP D174G (human) = Gαo-GFP D174G (human) (UniProt P09471)
Gαo-GFP E237K (human) = Gαo-GFP E237K (human) (UniProt P09471)
Gαo-GFP F275S (human) = Gαo-GFP F275S (human) (UniProt P09471)
Gαo-GFP G40R (human) = Gαo-GFP G40R (human) (UniProt P09471)
Gαo-GFP G45E (human) = Gαo-GFP G45E (human) (UniProt P09471)
Gαo-GFP I279N (human) = Gαo-GFP I279N (human) (UniProt P09471)
Gαo-GFP L199P (human) = Gαo-GFP L199P (human) (UniProt P09471)
Gαo-GFP N270H (human) = Gαo-GFP N270H (human) (UniProt P09471)
Gαo-GFP Q233P (human) = Gαo-GFP Q233P (human) (UniProt P09471)
Gαo-GFP S47G (human) = Gαo-GFP S47G (human) (UniProt P09471)
Gαo-GFP Y231C (human) = Gαo-GFP Y231C (human) (UniProt P09471)
[1] = molecular target: Gαo-GFP wild-type (human) (UniProt P09471)
[2] = molecular target: Gαo-GFP E246K (human), P09471; details: remark: other sources report otherwise
[3] = molecular target: Gαo-GFP G203R (human), P09471; details: remark: other sources report otherwise
[4] = molecular target: Gαo-GFP R209C (human), P09471; details: remark: other sources report otherwise

Amino acid sequences for entries named in this document (tags omitted). A change or cut given only in a name is not applied to a line headed by its entry.
UniProt P09471: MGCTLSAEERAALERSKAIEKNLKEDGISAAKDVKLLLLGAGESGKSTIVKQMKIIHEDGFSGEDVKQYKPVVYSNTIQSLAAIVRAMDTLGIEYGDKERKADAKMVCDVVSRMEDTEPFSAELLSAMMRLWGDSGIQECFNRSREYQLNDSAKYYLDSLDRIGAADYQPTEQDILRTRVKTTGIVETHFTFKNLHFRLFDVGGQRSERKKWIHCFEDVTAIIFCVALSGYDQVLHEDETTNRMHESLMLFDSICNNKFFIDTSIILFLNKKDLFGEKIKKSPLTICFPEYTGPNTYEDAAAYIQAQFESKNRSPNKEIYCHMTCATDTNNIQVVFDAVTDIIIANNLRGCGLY

B1: His6-RGS19 (protein, UniProt P49795 1-217)
chain: MPTPHEAEKQITGPEEADRPPSMSSHDTASPAAPSRNPCCLCWCCCCSCSWNQERRRAWQASRESKLQPLPSCEVCATPSPEEVQSWAQSFDKLMHSPAGRSVFRAFLRTEYSEENMLFWLACEELKAEANQHVVDEKARLIYEDYVSILSPKEVSLDSRVREGINKKMQEPSAHTFDDAQLQIYTLMHRDSYPRFLSSPTYRALLLQGPSQSSSEA
Which binding (Gαo-GFP A227V (human)) does the source give for B1 here?
Its binding is “no binding”.

And the binding (Gαo-GFP C215Y (human))?
Its binding is “no binding”.

And the binding (Gαo-GFP D174G (human))?
The binding was “no binding”.

What about the binding (Gαo-GFP E237K (human)) of the same binder?
The binding was “no binding”.

And the binding (Gαo-GFP F275S (human))?
The binding was “no binding”.

What about the binding (Gαo-GFP G40R (human)) of the same binder?
The binding was “no binding”.

What about the binding (Gαo-GFP G45E (human)) of the same binder?
The binding was “no binding”.

And the binding (Gαo-GFP I279N (human))?
Its binding is “no binding”.

And the binding (Gαo-GFP L199P (human))?
Its binding is “no binding”.

What about the binding (Gαo-GFP N270H (human)) of the same binder?
Its binding is “no binding”.

And the binding (Gαo-GFP Q233P (human))?
The binding was “no binding”.

What about the binding (Gαo-GFP S47G (human)) of the same binder?
The binding was “no binding”.

What about the binding (Gαo-GFP Y231C (human)) of the same binder?
Its binding is “no binding”.

And the binding [1]?
Its binding is “binds”.

B2: His6-RGS19, P49795 1-217 (protein)
chain: B1 chain
Which binding [2] does the source give for B2 here?
The binding was “no binding”.

And the binding [3]?
Its binding is “no binding”.

What about the binding [4] of the same binder?
Its binding is “no binding”.

Reference: article PMC11291268
